± gives the standard deviation of the averaged measurements. The list shows a part of the results. Values are raw readings; no control value is given beside them.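 A neuron, microglia and astrocyte co-culture models inflammatory neurodegeneration: bacterial LPS drives microglia-dependent neuron loss. Each compound was tested against DMSO vehicle wells on the same plates; BAY61-3606, a SYK inhibitor, was the reference neuroprotective control.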

For one experiment, the system named is rat primary cerebellar neuron-glia coculture. The experiment is described as follows: necrotic cell count (DRAQ7+) per image field (cells per field); higher = more necrosis. Conditions: LPS 0 ng/mL; 1 µM; treatment time 3 days. Here is the method:
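Primary rat (P3-7) cerebellar neuron-glia cocultures in 384-well plates were treated at DIV7 with 1 uM compound, then with or without 100 ng/mL LPS 30 min later, for 3 days. At DIV10 live cells were stained with Hoechst 33342, NeuO (live neurons), IB4-AF594 (microglia) and DRAQ7 (necrotic cells) and imaged at 10x (4 fields per well, IN Cell Analyzer 6000). Cells were classified with Cellpose/CellProfiler plus a Random Trees classifier. Values are per-well mean counts per image field (raw, not min-max normalised) and the median microglial FormFactor per image. Three technical replicates per repeat across 4 biological repeats; DMSO and BAY61-3606 serve as controls.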
For the compound `CN/C(=N\S(=O)(=O)c1ccc(Cl)cc1)N1CC(c2ccccc2)C(c2ccc(Cl)cc2)=N1` (stereo not given), the necrotic cell count amounted to 78.8 ± 24.
Still for that read-out and setting: under `O=C1CCCC2[C@H]3CNC[C@H](C3)CN12` (stereo not given in full) stands 86.8 ± 37; under `Cn1c(CCCC(=O)O)nc2cc(N(CCCl)CCCl)ccc21`, 92.8 ± 48; under `OC1(c2ccc(Cl)cc2)c2ccccc2C2=NCCN21` (stereo not given), 76.7 ± 42.
The same measure, in the same setting: under `C[C@]12CC[C@H](O)C[C@H]1CC[C@@H]1[C@@H]2CC[C@]2(C)[C@@H](C3=CC(=O)OC3)CC[C@]12O` stands 76.8 ± 29; under `N#Cc1nn(-c2c(Cl)cc(C(F)(F)F)cc2Cl)c(N)c1[S+]([O-])C(F)(F)F` (stereo not given), 61.2 ± 35.
Same read-out and setting: the same measure for `C[N+]1(C)CCO[C@@](O)(c2ccc(-c3ccc([C@@]4(O)C[N+](C)(C)CCO4)cc3)cc2)C1`: 76.1 ± 30; for `O=C(O[C@H]1C[N+]2(CCCOc3ccccc3)CCC1CC2)C(O)(c1cccs1)c1cccs1`: 83.7 ± 22.
Take `C=CCN(CC=C)CCc1c[nH]c2ccc(OC)cc12`: the necrotic cell count was found to be 81.3 ± 35.
For the compound `Clc1ccc2c(c1Cl)CNCC2`, the necrotic cell count was determined as 86.8 ± 42.
On the same count and under the same terms, under `Cc1cccc([C@H](C)c2c[nH]cn2)c1C` stands 82.7 ± 39; under `O=C(c1ccccc1)C(F)(F)F`, 81.8 ± 28; under `C=C(C)[C@H]1Cc2c(ccc3c2O[C@@H]2COc4cc(OC)c(OC)cc4[C@@H]2C3=O)O1`, 547 ± 180.
Compound `CCOc1ccccc1N1CCN(Cc2cccc3ccccc23)CC1` registered a necrotic cell count of 82.4 ± 36.
Still for that read-out and setting: the same measure for `Clc1ccc(OC[C@H]2CCN2)cn1`: 81.8 ± 32; for `C[C@@H]1CN([C@H]2CC[C@](C#N)(c3ccc(F)cc3)CC2)CC[C@]1(C(=O)O)c1ccccc1`: 79.6 ± 26; for `NCCc1cc(I)c(Oc2ccc(O)c(I)c2)c(I)c1`: 102 ± 37.
On the same count and under the same terms, the same measure for `O=C1NC(=O)N(c2cccc3ccccc23)C(=O)/C1=C\c1c[nH]c2ccccc12`: 56.9 ± 21; for `c1ccc(CCCN2CCN(CCOC(c3ccccc3)c3ccccc3)CC2)cc1`: 76.5 ± 37.
Still for that read-out and setting: the same measure for `O=[N+]([O-])/N=C1\NCCN1Cc1ccc(Cl)nc1`: 90.7 ± 47.

Staying with this experiment, now noted: LPS 100 ng/mL; 1 µM; treatment time 3 days.
`CN/C(=N\S(=O)(=O)c1ccc(Cl)cc1)N1CC(c2ccccc2)C(c2ccc(Cl)cc2)=N1` (stereo not given) had a necrotic cell count of 952 ± 400.
The same measure, in the same setting: under `O=C1CCCC2[C@H]3CNC[C@H](C3)CN12` (stereo not given in full) stands 890 ± 420; under `Cn1c(CCCC(=O)O)nc2cc(N(CCCl)CCCl)ccc21`, 1050 ± 450.
`OC1(c2ccc(Cl)cc2)c2ccccc2C2=NCCN21` (stereo not given) gave a necrotic cell count of 624 ± 510.
The same measure, in the same setting: the same measure for `C[C@]12CC[C@H](O)C[C@H]1CC[C@@H]1[C@@H]2CC[C@]2(C)[C@@H](C3=CC(=O)OC3)CC[C@]12O`: 984 ± 300; for `N#Cc1nn(-c2c(Cl)cc(C(F)(F)F)cc2Cl)c(N)c1[S+]([O-])C(F)(F)F` (stereo not given): 932 ± 430; for `C[N+]1(C)CCO[C@@](O)(c2ccc(-c3ccc([C@@]4(O)C[N+](C)(C)CCO4)cc3)cc2)C1`: 1000 ± 300.
On the same count and under the same terms, under `O=C(O[C@H]1C[N+]2(CCCOc3ccccc3)CCC1CC2)C(O)(c1cccs1)c1cccs1` stands 992 ± 280.
Still for that read-out and setting: under `C=CCN(CC=C)CCc1c[nH]c2ccc(OC)cc12` stands 955 ± 300; under `Clc1ccc2c(c1Cl)CNCC2`, 848 ± 310; under `Cc1cccc([C@H](C)c2c[nH]cn2)c1C`, 874 ± 340.
In turn, `O=C(c1ccccc1)C(F)(F)F` displayed a necrotic cell count of 968 ± 310.
With `C=C(C)[C@H]1Cc2c(ccc3c2O[C@@H]2COc4cc(OC)c(OC)cc4[C@@H]2C3=O)O1`, the necrotic cell count is 1490 ± 330.
Same read-out and setting: under `CCOc1ccccc1N1CCN(Cc2cccc3ccccc23)CC1` stands 868 ± 330.
On the same count and under the same terms, under `Clc1ccc(OC[C@H]2CCN2)cn1` stands 973 ± 330; under `C[C@@H]1CN([C@H]2CC[C@](C#N)(c3ccc(F)cc3)CC2)CC[C@]1(C(=O)O)c1ccccc1`, 894 ± 240.
The same measure, in the same setting: the same measure for `NCCc1cc(I)c(Oc2ccc(O)c(I)c2)c(I)c1`: 949 ± 300; for `O=C1NC(=O)N(c2cccc3ccccc23)C(=O)/C1=C\c1c[nH]c2ccccc12`: 884 ± 170; for `c1ccc(CCCN2CCN(CCOC(c3ccccc3)c3ccccc3)CC2)cc1`: 916 ± 180.
`O=[N+]([O-])/N=C1\NCCN1Cc1ccc(Cl)nc1` yielded a necrotic cell count of 828 ± 240.
